The target in one test is T1, HA-CARM1 (UniProt Q86X55).
T1 sequence: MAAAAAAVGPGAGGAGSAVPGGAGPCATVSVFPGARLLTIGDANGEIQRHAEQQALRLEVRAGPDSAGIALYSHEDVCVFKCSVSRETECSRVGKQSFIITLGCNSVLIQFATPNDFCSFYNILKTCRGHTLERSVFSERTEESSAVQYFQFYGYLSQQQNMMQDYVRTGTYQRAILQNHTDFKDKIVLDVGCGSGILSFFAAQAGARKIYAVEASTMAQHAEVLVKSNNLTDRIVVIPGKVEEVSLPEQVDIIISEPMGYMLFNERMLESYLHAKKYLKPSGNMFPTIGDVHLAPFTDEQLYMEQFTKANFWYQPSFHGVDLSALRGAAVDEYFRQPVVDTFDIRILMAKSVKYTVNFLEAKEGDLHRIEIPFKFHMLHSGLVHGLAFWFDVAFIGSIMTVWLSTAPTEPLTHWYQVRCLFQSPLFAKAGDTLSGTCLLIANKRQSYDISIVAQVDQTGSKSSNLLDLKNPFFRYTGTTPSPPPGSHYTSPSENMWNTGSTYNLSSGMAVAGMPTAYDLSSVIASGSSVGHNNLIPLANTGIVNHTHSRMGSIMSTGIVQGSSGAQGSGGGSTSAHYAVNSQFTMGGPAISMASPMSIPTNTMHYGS
The test is described as follows: co-IP; truncated forms of ACSL4 with CARM1 in HEK-293T cells.

For test [1], the target named is ACSL4 WT (expressed in HEK-293T for the co-IP with E3 ligases) (UniProt O60488). The test is described as follows: co-IP; ACSL4 WT or ACSL4 R339A enriched from HEK-293T cells, E3 ubiquitin ligase detected.

No constants are given. Whether binding was seen depends on the method and setting. In cells and extracts the contact can be indirect. Some entries that bind do so weakly or less than the wild type. Where a sequence is shown, tags or fusion partners need not be part of it.

B1: ACSL4 fragment 2 (103-578 aa) (domain or fragment, UniProt O60488 103-578)
chain: SEENEMQPNGKVFKKLILGNYKWMNYLEVNRRVNNFGSGLTALGLKPKNTIAIFCETRAEWMIAAQTCFKYNFPLVTLYATLGKEAVVHGLNESEASYLITSVELLESKLKTALLDISCVKHIIYVDNKAINKAEYPEGFEIHSMQSVEELGSNPENLGIPPSRPTPSDMAIVMYTSGSTGRPKGVMMHHSNLIAGMTGQCERIPGLGPKDTYIGYLPLAHVLELTAEISCFTYGCRIGYSSPLTLSDQSSKIKKGSKGDCTVLKPTLMAAVPEIMDRIYKNVMSKVQEMNYIQKTLFKIGYDYKLEQIKKGYDAPLCNLLLFKKVKALLGGNVRMMLSGGAPLSPQTHRFMNVCFCCPIGQGYGLTESCGAGTVTEVTDYTTGRVGAPLICCEIKLKDWQEGGYTINDKPNPRGEIVIGGQNISMGYFKNEEKTAEDYSVDENGQRWFCTGDIGEFHPDGCLQIIDRKKDLVKLQ
As to B1, the binding result with HA-CARM1 was “binds”.

B2: Flag-RNF25 (enzyme, UniProt Q96BH1 1-459)
chain: MAASASAAAGEEDWVLPSEVEVLESIYLDELQVIKGNGRTSPWEIYITLHPATAEDQDSQYVCFTLVLQVPAEYPHEVPQISIRNPRGLSDEQIHTILQVLGHVAKAGLGTAMLYELIEKGKEILTDNNIPHGQCVICLYGFQEKEAFTKTPCYHYFHCHCLARYIQHMEQELKAQGQEQEQERQHATTKQKAVGVQCPVCREPLVYDLASLKAAPEPQQPMELYQPSAESLRQQEERKRLYQRQQERGGIIDLEAERNRYFISLQQPPAPAEPESAVDVSKGSQPPSTLAAELSTSPAVQSTLPPPLPVATQHICEKIPGTRSNQQRLGETQKAMLDPPKPSRGPWRQPERRHPKGGECHAPKGTRDTQELPPPEGPLKEPMDLKPEPHSQGVEGPPQEKGPGSWQGPPPRRTRDCVRWERSKGRTPGSSYPRLPRGQGAYRPGTRRESLGLESKDGS
B2: the binding result in test [1] was “binds”.

The values are drawn from publication PMC10754121.
